The results in this text go back to PMC6410202, “Dual Action of the PN159/KLAL/MAP Peptide: Increase of Drug Penetration across Caco-2 Intestinal Barrier Model by Modulation of Tight Junctions and Plasma Membrane Permeability” (Pharmaceutics, 2019).

SMILES strings stand for the structures.

The data set is described as follows: in vitro. The conditions noted are these: human, Caco-2, Papp A-B. As for the experimental part: In the permeability experiments inserts with Caco-2 cell layers grown for 3 weeks were transferred to 12-well plates containing 1.5 mL Ringer–Hepes buffer in the lower (basal or acceptor) compartments. In the upper or apical compartments culture medium was replaced by 0.5 mL buffer containing peptide solutions: PN159 peptide at 1, 3, 10 and 30 μM concentrations and CPPs at 100 μM concentration. […] The incubation with permeability markers in the presence of PN159 peptide lasted for 30 min. In case of CPPs the incubation time with fluorescein was 1-h. Samples were collected from both compartments and the concentrations of the marker molecules were determined by a fluorescence multi-well plate reader (Fluostar Optima; excitation wavelength: 485 nm, emission wavelength: 535 nm in the case of fluorescein and excitation wavelength: 584 nm, emission wavelength: 680 nm in the case of Evans-blue labeled albumin). Fluorescein isothiocyanate (FITC)-labelled dextran marker molecules (Table 1) were used at 1 mM concentrations, and fluorescence intensities of collected samples were measured using a Fluorolog FL3-22 (Horiba Jobin Yvon, Paris, France) spectrofluorometer using 492 nm excitation wavelength, 515 nm emission wavelength, and 0.5 s integration time. Drugs were used at 10 μM concentrations and samples were measured by HPLC as described below. […]

In the case of `CC(C)NCC(O)COc1ccc(CC(N)=O)cc1` (centres unmarked) [atenolol], the Papp A→B – broadly, the apparent permeability from the apical to the basolateral side of a cell layer – at 30 min, 10 μM amounted to 36.3 ± 1.9 ×10⁻⁶ cm/s (PN159 treated) and 1.2 ± 0.3 ×10⁻⁶ cm/s (control).
